# Reference: PubChem BioAssay AID540256 (National Center for Advancing Translational Sciences (NCATS), 2011)
# Among all 300,000 compounds or so, about 3,700 (1.2%) were called active. This list was built around the results that the source calls inconclusive (neither active nor inactive); the mix of calls is not that of the screen. The call rests on the fitted dose curve; tested in HEK293 cells. Where the call is inconclusive, the potency comes from a doubtful curve fit.
# Experiment: qHTS for Inhibitors of binding or entry into cells for Lassa Virus; further: nearly all actives have a fitted effect of over 50% in size
# Conditions: Lassa virus pseudotype entry inhibition, cell reporter; activity change, negative = inhibition: at 37.9 µM (top of the series) unless noted
# On the % scale 0 is the no-effect control and ±100 the full control effect; potency means the concentration at half of the fitted maximal effect.
Compound,Potency,"activity change, negative = inhibition"
CCOC(=O)C1(CCc2ccccc2)CCN(Cc2cccc3cnccc23)CC1,"inconclusive: 11.2 µM [inhibitor, partial curve, poor fit]",
C/C(=N\NC(=O)c1nnn(-c2nonc2N)c1CN1CCCCCC1)c1ccc(Br)cc1,"inconclusive: 1.12 µM [inhibitor, full curve, poor fit]",
Cc1[nH]c2ccccc2c1CC(=O)O,"inconclusive: 0.13 µM [inhibitor, full curve, poor fit]",
Cc1cc(SCC(=O)c2cccs2)n2nc(C)c(-c3ccccc3)c2n1,"inconclusive: 14.6 µM [inhibitor, partial curve, poor fit]",
CC1CCN(S(=O)(=O)c2ccc3c(c2)N(CC(=O)N2CCN(c4ccc(Cl)cc4)CC2)C(=O)CO3)CC1,,inactive: 6.01% [at 46.1 µM]
O=C(NC1CC(=O)N(c2ccc(Cl)cc2)C1)N1CCN(C(=O)c2ccco2)CC1 (stereo not given),"inconclusive: 12.6 µM [activator, single point]",
COc1ccc(-c2csc(NC(=S)NC(=O)/C=C/c3ccccc3)n2)cc1Br,"inconclusive: 3.98 µM [inhibitor, single point]",
Cc1cc(NC(=O)CN2CCN(S(=O)(=O)c3ccc(Cl)cc3)CC2)no1,,inactive: 0.98%
O=C(Nc1ccc2c(c1)CCC2)C1COc2ccccc2O1 (stereo not given),"inconclusive: 1.83 µM [activator, partial curve]",
O=C(CCNS(=O)(=O)c1cccc2nsnc12)Nc1ccc2c(c1)OCCO2,,inactive: -3.08%
COc1cccc(C2=NN(C(C)=O)C(c3cn(-c4ccccc4)nc3-c3cccs3)C2)c1 (stereo not given),,inactive: 1.81% [at 46.1 µM]
COc1ccc(C(=O)NCCS(=O)(=O)N2CCN(Cc3ccccc3)CC2)cc1,,inactive: -17.8%
Cc1nn2c(N3CCOCC3)cc(C(C)(C)C)nc2c1-c1ccc(Cl)cc1,,inactive: -9.65% [at 46.1 µM]
CCOC(=O)CNC(=O)Cn1cnc2sc(C)c(S(=O)(=O)N3CCOCC3)c2c1=O,"inconclusive: 35.5 µM [inhibitor, single point]",
CCc1ccc(N2CC(C)Cn3c2nc2c3c(=O)[nH]c(=O)n2C)cc1 (stereo not given),"inconclusive: 7.08 µM [inhibitor, partial curve]",
Cc1ccc(CN2CCN(Cc3ccc(-n4cccn4)cc3)CC2CCO)cc1 (stereo not given),,inactive: -11.8%
CC(C)(C)c1ccc(OCCSc2nc(-c3cccs3)nc3cc(=O)[nH]n23)cc1,,inactive: 1.63% [at 46.1 µM]
CC(=O)Nc1ccc(-n2cc3c(c2-c2ccc(C)cc2)c(=O)n(C)c(=O)n3C)cc1,"inconclusive: 15.8 µM [inhibitor, partial curve, poor fit]",
CCNc1nc(NCC)n2c(SCC(=O)Nc3ccc(F)cc3[N+](=O)[O-])nnc2n1,"inconclusive: 1.26 µM [inhibitor, single point]",
O=C(CSc1nc2ccccc2c(=O)n1Cc1ccco1)N1CCCCCC1,"inconclusive: 29.1 µM [inhibitor, single point]",
C=CCN(CC(O)c1cccc([N+](=O)[O-])c1)C(C)CCc1ccccc1 (stereo not given),"inconclusive: 35.5 µM [inhibitor, single point]",
CNc1c(N)c(=O)oc2ccccc12,,inactive: 6.34%
Cc1c(C)c(C)c(S(=O)(=O)n2[nH]c(=O)c(CCO)c2C)c(C)c1C,"inconclusive: 35.5 µM [inhibitor, single point]",

Compound,Potency,"activity change, negative = inhibition"
Cc1ccc(/C(N)=N/OC(=O)c2ccco2)cc1,"inconclusive: 9.2 µM [inhibitor, partial curve, poor fit]",
O=c1nc(-c2ccccc2)c2cc(Cl)ccc2[nH]1,,inactive: 17.6%
CCCCN(CC)CCCn1cnc2c([nH]c3ccc(Cl)cc32)c1=O,,inactive: 28% [at 46.1 µM]
CCCCC(=O)N/N=C(\C)CC(=O)Nc1ccccc1Br,,inactive: 11.5%
COc1ccccc1N1CCN(C(=O)C2CCN(S(=O)(=O)c3ccc(Cl)cc3)CC2)CC1,"inconclusive: 32.6 µM [inhibitor, single point]",
CCOC(=O)Nc1ccc2c(CNC(C)c3ccccc3OC)cc(=O)oc2c1 (stereo not given),"inconclusive: 11.2 µM [inhibitor, partial curve, poor fit]",
Cc1cccc(N2C(S)=C(C#N)C(=O)NC2c2ccco2)c1 (stereo not given),,inactive: 8.89% [at 46.1 µM]
COc1ccc(C2C(C#N)=C3NC(=O)c4c(sc5c4CCCCC5)N3C3=C2C(=O)CC(C)(C)C3)cc1 (stereo not given),active: 23.1 µM,
Cc1ccc(C)c(S(=O)(=O)c2nnn3c2nc(N2CCCC2)c2sccc23)c1,"inconclusive: 2.82 µM [inhibitor, partial curve]",
CCc1ccccc1N1CC(c2nc3ccccc3n2CC(C)C)CC1=O (stereo not given),"inconclusive: 11.2 µM [inhibitor, partial curve, poor fit]",
CCOc1ccc(N2C(=O)c3cccnc3C2=O)cc1,,inactive: 21.9%
Cc1cc(=O)c2ccccc2n1CC(=O)NCc1ccccc1,"inconclusive: 18.4 µM [inhibitor, single point]",
O=C(Cn1ncc2c3ccccc3n(Cc3ccc(Cl)cc3)c2c1=O)NCCCc1ccccc1,,inactive: 1.21% [at 46.1 µM]
COc1ccc(N=Cc2ccc[nH]2)cc1,,inactive: 16.2%
COc1ccc(CC2(CO)CCN(C/C=C/c3ccccc3OC)CC2)cc1,"inconclusive: 35.5 µM [inhibitor, single point]",
CSc1ccccc1-c1nnc(-c2ccc(C)cc2)o1,"inconclusive: 35.5 µM [inhibitor, single point]",
COc1ccccc1N1CCN(C(=O)c2cccc(S(=O)(=O)N3c4ccccc4CC3C)c2)CC1 (stereo not given),"inconclusive: 25.1 µM [inhibitor, single point]",
COc1ccc(/C=C/c2nc3ccccc3n2Cc2ccc(OC)c(OC)c2)cc1,"inconclusive: 16.4 µM [inhibitor, single point]",
COc1cc(CCC(=O)Nc2ccc(S(=O)(=O)NC3=NCCCCC3)cc2)cc(OC)c1OC,,inactive: 19.4%
CC(=O)c1ccc(NC(=O)c2sc3nc4c(cc3c2N)N2CCC4CC2)cc1,"inconclusive: 35.5 µM [inhibitor, single point]",
CSc1ccccc1OCc1cc(C(=O)NCCn2nc(C)cc2C)no1,"inconclusive: 20 µM [inhibitor, single point]",
Cc1cc(C)cc(N(C(=O)c2snc(C(N)=O)c2N)C(C(=O)NCC2CCCO2)c2cccs2)c1 (stereo not given),"inconclusive: 35.5 µM [inhibitor, single point]",

# Already shown: entries from further up.
Compound,Potency,"activity change, negative = inhibition"
CNc1c(N)c(=O)oc2ccccc12,,inactive: 6.34%
Cc1c(C)c(C)c(S(=O)(=O)n2[nH]c(=O)c(CCO)c2C)c(C)c1C,"inconclusive: 35.5 µM [inhibitor, single point]",
